Measured values reported in patent publication US20120301394A1 (published 2012).
These are yes or no findings as the source states them, for the method shown. Some entries that bind do so weakly or less than the wild type.

Molecular target: T1, Recombinant human MMR (R&D systems) (human, UniProt P22897 19-1383)
T1 construct: Bought protein (R&D Systems #2534) coated on ELISA plates; also called hMMR; MRC1
T1 sequence: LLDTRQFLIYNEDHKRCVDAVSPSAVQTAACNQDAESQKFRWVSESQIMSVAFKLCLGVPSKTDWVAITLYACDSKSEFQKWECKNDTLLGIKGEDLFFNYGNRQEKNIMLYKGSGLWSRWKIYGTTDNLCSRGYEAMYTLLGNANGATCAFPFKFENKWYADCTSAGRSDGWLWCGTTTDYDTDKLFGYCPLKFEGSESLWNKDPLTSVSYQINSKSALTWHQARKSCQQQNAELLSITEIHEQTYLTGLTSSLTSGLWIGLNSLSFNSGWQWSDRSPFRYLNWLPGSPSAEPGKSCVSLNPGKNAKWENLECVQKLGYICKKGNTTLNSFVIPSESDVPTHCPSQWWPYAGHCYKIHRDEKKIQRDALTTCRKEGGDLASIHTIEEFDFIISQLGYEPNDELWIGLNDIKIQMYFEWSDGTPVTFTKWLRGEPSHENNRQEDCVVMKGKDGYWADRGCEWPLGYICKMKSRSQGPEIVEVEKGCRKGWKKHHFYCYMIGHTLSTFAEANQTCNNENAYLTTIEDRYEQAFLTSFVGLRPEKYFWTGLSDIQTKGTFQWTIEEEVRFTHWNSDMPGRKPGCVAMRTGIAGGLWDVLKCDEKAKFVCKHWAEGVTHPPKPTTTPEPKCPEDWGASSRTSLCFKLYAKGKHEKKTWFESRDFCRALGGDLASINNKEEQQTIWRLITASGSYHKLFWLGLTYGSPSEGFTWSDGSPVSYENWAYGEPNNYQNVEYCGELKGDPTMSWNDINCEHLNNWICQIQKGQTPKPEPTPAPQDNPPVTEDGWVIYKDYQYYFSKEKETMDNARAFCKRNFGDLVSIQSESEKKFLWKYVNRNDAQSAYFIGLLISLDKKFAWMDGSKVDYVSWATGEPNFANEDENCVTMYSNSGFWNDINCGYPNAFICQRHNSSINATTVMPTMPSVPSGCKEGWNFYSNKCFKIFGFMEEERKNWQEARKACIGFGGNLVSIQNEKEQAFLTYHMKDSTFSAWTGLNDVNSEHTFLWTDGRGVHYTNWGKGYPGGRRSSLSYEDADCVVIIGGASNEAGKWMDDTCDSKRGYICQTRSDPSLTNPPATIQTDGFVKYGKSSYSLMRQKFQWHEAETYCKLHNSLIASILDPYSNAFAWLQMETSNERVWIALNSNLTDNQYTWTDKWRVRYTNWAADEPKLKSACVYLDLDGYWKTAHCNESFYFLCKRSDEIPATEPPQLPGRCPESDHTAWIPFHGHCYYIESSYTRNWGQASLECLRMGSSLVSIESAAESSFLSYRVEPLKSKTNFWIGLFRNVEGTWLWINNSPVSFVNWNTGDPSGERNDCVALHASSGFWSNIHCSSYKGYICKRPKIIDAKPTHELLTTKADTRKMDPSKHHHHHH
Assay: PE-ELISA, periplasmic extract on coated human MMR

binding: binds
B1: NbhmMMRm21.22 (VHH)
VHH: QVQLQESGGGLVQAGGSLRLSCAASGRTFSSAAMGWFRQAPGKEREPVALINLDDGETYYADIAKGRFTLSKDNAKNSVYLQMNSLKPEDTAVYYCAVRGRFDDNYEYWGQGTQVTVSS
